Source: the supplement of paper PMC12259267, “Disruption of the KLHL37–N-Myc complex restores N-Myc degradation and arrests neuroblastoma growth in mouse models” (The Journal of Clinical Investigation, 2025)
Where a name gives a salt, the structure may show the parent alone. Some of the results follow. Single values are uncertain, as repeats are few or missing.

Test system: SK-N-BE(2)
Assay: inhibition of N-Myc immunofluorescence signal per cell relative to control (fraction); higher = stronger N-Myc protein reduction
Conditions: 1 µM; 9 h

Structure (SMILES)	inhibition of N-Myc immunofluorescence signal per cell
N#Cc1ccc(Cn2cncc2CN2CCN(c3cccc(Cl)c3)C(=O)C2)cc1	0.00496
O=C(NC[C@H](O)CN1CCc2ccccc2C1)c1cc(NC2COC2)ncn1	-0.0188
Cc1nc(C(=O)NCC(=O)O)c(O)c2ccc(Oc3ccccc3)cc12 [Roxadustat]	0.0189
O=C(Nc1ccccc1-c1cn2c(CN3CC[C@@H](O)C3)csc2n1)c1ccc2ccccc2c1	-0.0737
Cc1ncsc1-c1ccc(CNC(=O)[C@@H]2C[C@@H](O)CN2C(=O)[C@@H](NC(=O)C2(C#N)CC2)C(C)(C)C)cc1	-0.214
CCCC(NC(=O)/C(C#N)=C/c1nc(Cl)ccc1Cl)c1ccc(OCCN2CCOCC2)cc1 (stereo not given)	0.0795
N#Cc1ccc(N2CCN(Cc3ccc(COc4cccc5c4CN([C@H]4CCC(=O)NC4=O)C5=O)cc3)CC2)c(F)c1	-0.00387
O=C(Nc1ccc2c(O)cc(S(=O)(=O)O)cc2c1)Nc1ccc2c(O)cc(S(=O)(=O)O)cc2c1 [AMI-1 (free acid)]	-0.195
COC(=O)c1ccc2c(c1)nc(NC(=O)c1ccccc1)n2CCCc1ccccc1	-0.112
CC[C@@]1(O)C[C@H](O[C@H]2C[C@H](N(C)C)[C@H](O[C@H]3C[C@H](O)[C@H](O[C@H]4CCC(=O)[C@H](C)O4)[C@H](C)O3)[C@H](C)O2)c2c(cc3c(c2O)C(=O)c2c(O)cccc2C3=O)[C@H]1C(=O)OC [Aclacinomycin A hydrochloride]	0.553
COc1cc2c(NC3CCN(C(C)C)CC3)nc(N3CCC(F)(F)CC3)nc2cc1OCCCN1CCCC1	-0.0806
N#CSc1cc(SC#N)c(N)nc1N	-0.143
CCO/N=C1\c2ccccc2-c2nc(C#N)c(C#N)nc21	0.00389
COc1ccc(-c2nc(N3CCOCC3)c3sc(CN(C)c4ncc(C(=O)NO)cn4)cc3n2)cn1 [Fimepinostat]	0.244
O=C(NN=Cc1c(O)ccc2ccccc12)c1ccncc1	-0.256
CCCCCCCc1ccc(CCc2cccc(O)c2C(=O)O)cc1	-0.153
COc1cc2c(cc1OC(C)C)[C@H](c1ccc(Cl)cc1)N(c1ccc(N(C)C[C@H]3CC[C@H](N4CCN(C)C(=O)C4)CC3)cc1)C(=O)C2	0.12
O=C(Nc1ccc(O)c(C(=O)O)c1)c1cccc(NC(=O)c2ccco2)c1	0.0327

Structure (SMILES)	inhibition of N-Myc immunofluorescence signal per cell
C/C(=N\NC(=O)c1cccc(S(=O)(=O)N2CCOCC2)c1)c1cc(Cl)ccc1O	0.122
CC[C@@H]1/C=C(\C)C[C@H](C)C[C@H](OC)[C@H]2O[C@@](O)(C(=O)C(=O)N3CCCC[C@H]3C(=O)O[C@H](/C(C)=C/[C@@H]3CC[C@@H](O)[C@H](OC)C3)[C@H](C)[C@@H](O)CC1=O)[C@H](C)C[C@@H]2OC [Ascomycin]	-0.01
CC(C)(C)OC(=O)c1ccc(-n2[nH]cc(-n3ccnn3)c2=O)nc1	-0.11
COCCCc1sc(-c2ccccc2)nc1C(=O)Nc1ccccc1-c1nc2cc(CN3CCCC3)cnc2s1 [Sirtuin modulator 1]	-0.0758
CCCC[C@@H](C=O)NC(=O)[C@H](CC(C)C)NC(=O)OCc1ccccc1 [Calpeptin]	-0.0433
Nc1ccccc1NC(=O)c1cnccn1	0.0625
CN(C)CCCCC(=O)Nc1ccc(NC(=S)NC(=O)c2ccc(C(C)(C)C)cc2)cc1 [Tenovin-6]	-0.224
COc1ccc(C2=N[C@@H](c3ccc(Cl)cc3)[C@@H](c3ccc(Cl)cc3)N2C(=O)N2CCNC(=O)C2)c(OC(C)C)c1 [Nutlin-3]	0.0346
O=C(NO)c1ccc(CC(=O)N(CCO)c2ccccc2)cc1	-0.117
Nc1ccc(SCC(=O)Nc2ccc3nc(NC(=O)c4ccc(C(F)(F)F)cc4)sc3c2)cc1 [ZM223 (hydrochloride)]	0.0142
O=C(CCc1ccccc1)N1CCC(O)(Cn2cnc3cc(Cl)ccc3c2=O)CC1	-0.0262
O=C1/C(=C/c2cccs2)CC/C1=C\c1cccs1	-0.0426
Nc1ccccc1NC(=O)CCCCCCC(=O)Nc1ccccc1	-0.158
O=C1/C(=C/c2ccc([N+](=O)[O-])cc2)CNC/C1=C\c1ccc([N+](=O)[O-])cc1	0.394
COc1cc2c(cc1OC(C)C)[C@H](c1ccc(Cl)cc1)N(c1ccc(N(C)C[C@H]3CC[C@H](N4CCN(C)C(=O)C4)CC3)cc1)C(=O)C2 [NVP-CGM097 (sulfate)]	0.00951
N[C@@H](Cc1ccccc1)C(=O)N1C/C(=C\c2ccc(Cl)c(Cl)c2)C(=O)/C(=C/c2ccc(Cl)c(Cl)c2)C1	0.217
CCCCCCCCCCCCCC(=S)NCCCC[C@H](NC(=O)OCc1ccccc1)C(=O)Nc1ccccc1 [Thiomyristoyl]	0.149

An excerpt taken from the entries so far:
Structure (SMILES)	inhibition of N-Myc immunofluorescence signal per cell
Nc1ccccc1NC(=O)CCCCCCC(=O)Nc1ccccc1	-0.158
O=C1/C(=C/c2ccc([N+](=O)[O-])cc2)CNC/C1=C\c1ccc([N+](=O)[O-])cc1	0.394
